Experimental data from US20160257751A1 (SORRENTO THERAPEUTICS, published 2016).
Results are given in words; binding and its absence hold for the method and conditions named. Some results given as binding are weak or reduced against the parent protein; the word gives no strength. Blank lines part the entries; values can stand above or below the binder they belong to.

Amino acid sequences for entries named in this document (tags omitted). Residues count along the entry.
UniProt Q08722, residues 19-139: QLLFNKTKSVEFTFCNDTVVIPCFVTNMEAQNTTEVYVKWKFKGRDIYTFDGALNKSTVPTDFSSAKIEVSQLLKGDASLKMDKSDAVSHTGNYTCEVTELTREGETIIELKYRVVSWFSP

What was measured:
human CD47 (human) [1] = molecular target: human CD47 (human) (UniProt Q08722); test: ELISA: IgG at 1 ug/ml captured on goat anti-human Fd antibody; serially diluted biotinylated CD47 pre-complexed with neutravidin-AP; PNPP absorbance
human CD47 (human) [2] = molecular target: human CD47 (human) (UniProt Q08722); test: ELISA, IgG captured on goat anti-human FD antibody, biotinylated CD47 pre-complexed with neutravidin-AP
human CD47 (human) [3] = molecular target: human CD47 (human) (UniProt Q08722); test: ELISA, antibody captured on goat anti-human lambda, biotinylated CD47 pre-complexed with neutravidin-AP
human CD47 (human) [4] = molecular target: human CD47 (human) (UniProt Q08722); test: ELISA: antibody at 1.3 ug/ml captured on goat anti-human lambda antibody; serially diluted biotinylated CD47 pre-complexed with neutravidin-AP; PNPP absorbance
human CD47 (human) [5] = molecular target: human CD47 (human) (UniProt Q08722); test: affinity screen of CDR variants; ELISA
human CD47 (human) [6] = molecular target: human CD47 (human) (UniProt Q08722); test: affinity screen of CDR variants
human CD47 (human) [7] = molecular target: human CD47 (human) (UniProt Q08722); test: affinity screen of CDR variants and combinatorial library, relative to C47B10-1
human CD47 (human) [8] = molecular target: human CD47 (human) (UniProt Q08722); test: ELISA, antibody captured on goat anti-lambda, biotinylated CD47, neutravidin-AP detection
human CD47 (human) [9] = molecular target: human CD47 (human) (UniProt Q08722); test: ELISA: antibody at 1 ug/ml captured on goat anti-lambda antibody; serially diluted biotinylated CD47, then neutravidin-AP; PNPP absorbance
human CD47 [10] = molecular target: T1, human CD47 (human, UniProt Q08722 19-139, limits assumed, biotinylated in the ELISAs (site not stated)); test: ELISA: IgG at 1 ug/ml captured on goat anti-human Fd antibody; serially diluted biotinylated CD47 pre-complexed with neutravidin-AP; PNPP absorbance
T1 construct: also called biotinylated CD47; CD47 receptor

human CD47 [11] = molecular target: T1, human CD47; test: ELISA, IgG captured on goat anti-human FD antibody, biotinylated CD47 pre-complexed with neutravidin-AP

binding (human CD47 (human) [1]): binds | binding (human CD47 (human) [2]): binds
B1: C47A8-CL (antibody, V domains shown)
VH: QVQLVQSGAEVKKPGASVKVSCKASGYTFTSYYMHWVRQAPGQGLEWMGIINPSGGSTSYAQKFQGRVTMTRDTSTSTVYMELSSLRSEDTAVYYCARSTLWFSEFDYWGQGTLVTVSS
VL: QSVLTQPSSVSASPGQSITISCSGTSSDVGGHNYVSWYQQHPGKAPKLMIYDVTKRPSGVPDRFSGSKSGNTASLTVSGLQAEDEADYYCLSYAGSRVYVFGTGTKLTVL

binding (human CD47 (human) [3]): binds | binding (human CD47 (human) [4]): binds | binding (human CD47 (human) [5]): binds
B2: C47B10-H3-D4 (antibody, V domains shown)
VH: QVQLVQSGAEVKKPGASVKVSCKASGYTFTSYYMHWVRQAPGQGLEWMGIINPSGGSTSYAQKFQGRVTMTRDTSTSTVYMELSSLRSEDTAVYYCARSTLWVSEFDYWGQGTLVTVSS
VL: QSALTQPASVSGSPGQSISISCTGTSSDVGGHNYVSWYQQHPGKAPKLMIYDVRNRPSGVSNRFSGSKSGSTASLTISGLQTEDEADYYCNSYTGSRTYVFGSGTKLTVL

binding (human CD47 (human) [6]): binds | binding (human CD47 (human) [3]): binds | binding (human CD47 (human) [4]): binds
B3: C47B10-L1A-A4 (antibody, V domains shown)
VH: QVQLVQSGAEVKKPGASVKVSCKASGYTFTSYYMHWVRQAPGQGLEWMGIINPSGGSTSYAQKFQGRVTMTRDTSTSTVYMELSSLRSEDTAVYYCARSTLWFSEFDYWGQGTLVTVSS
VL: QSALTQPASVSGSPGQSISISCTGTSSDVVGHNYVSWYQQHPGKAPKLMIYDVRNRPSGVSNRFSGSKSGSTASLTISGLQTEDEADYYCNSYTGSRTYVFGSGTKLTVL

binding (human CD47 (human) [1]): binds | binding (human CD47 (human) [2]): binds
B4: C47A8-CA (antibody, V domains shown)
VH: QVQLVQSGAEVKKPGASVKVSCKASGYTFTSYYMHWVRQAPGQGLEWMGIINPSGGSTSYAQKFQGRVTMTRDTSTSTVYMELSSLRSEDTAVYYCARSTLWFSEFDYWGQGTLVTVSS
VL: QSVLTQPSSVSASPGQSITISCSGTSSDVGGHNYVSWYQQHPGKAPKLMIYDVTKRPSGVPDRFSGSKSGNTASLTVSGLQAEDEADYYCASYAGSRVYVFGTGTKLTVL

binding (human CD47 (human) [7]): binds
B5: C47B10-1H4S (antibody, V domains shown)
VH: QVQLVQSGAEVKKPGASVKVSCKASGYTFTSYYMHWVRQAPGQGLEWMGIINPSGGSTSYAQKFQGRVTMTRDTSTSTVYMELSSLRSEDTAVYYCARSTLWFSEFDYWGQGTLVTVSS
VL: QSALTQPASVSGSPGQSISISCTGTSVDVGGHNYVSWYQQHPGKAPKLMIYDVRNRPSGVSNRFSGSKSGSTASLTISGLQTEDEADYYCNSYTGSRTYVFGSGTKLTVL

binding (human CD47 (human) [8]): binds | binding (human CD47 (human) [7]): binds | binding (human CD47 (human) [9]): binds
B6: C47B10-2B9S (antibody, V domains shown)
VH: QVQLVQSGAEVKKPGASVKVSCKASGYTFTSYYMHWVRQAPGQGLEWMGIINPSGGSTSYAQKFQGRVTMTRDTSTSTVYMELSSLRSEDTAVYYCARSTLWFSAFDYWGQGTLVTVSS
VL: QSVLTQPASVSGSPGQSISISCTGTSSDVGGHNYVSWYQQHPGKAPKLMIYDVRNRPSGVSNRFSGSKSGSTASLTISGLQTEDEADYYCNSYTGSRTYVFGSGTKLTVL

binding (human CD47 (human) [8]): binds | binding (human CD47 (human) [7]): binds | binding (human CD47 (human) [9]): binds
B7: C47B10-2A9S (antibody, V domains shown)
VH: QVQLVQSGAEVKKPGASVKVSCKASGYTFTSYYMHWVRQAPGQGLEWMGIINPSGGSTSYAQKFQGRVTMTRDTSTSTVYMELSSLRSEDTAVYYCARSRLWFSEFDYWGQGTLVTVSS
VL: QSALTQPASVSGSPGQSISISCTGTSSDVGGHNYVSWYQQHPGKAPKLMIYDVRNRPSGVSNRFSGSKSGSTASLTISGLQTEDEADYYCNSYTGSRTYVFGSGTKLTVL

binding (human CD47 (human) [3]): binds | binding (human CD47 (human) [4]): binds | binding (human CD47 (human) [5]): binds
B8: C47B10-L1A-A10 (antibody, V domains shown)
VH: QVQLVQSGAEVKKPGASVKVSCKASGYTFTSYYMHWVRQAPGQGLEWMGIINPSGGSTSYAQKFQGRVTMTRDTSTSTVYMELSSLRSEDTAVYYCARSTLWFSEFDYWGQGTLVTVSS
VL: QSALTQPASVSGSPGQSISISCTGTSSDVGWHNYVSWYQQHPGKAPKLMIYDVRNRPSGVSNRFSGSKSGSTASLTISGLQTEDEADYYCNSYTGSRTYVFGSGTKLTVL

binding (human CD47 [10]): binds | binding (human CD47 [11]): binds
B9: C47A8 (antibody, V domains shown)
VH: QVQLVQSGAEVKKPGASVKVSCKASGYTFTSYYMHWVRQAPGQGLEWMGIINPSGGSTSYAQKFQGRVTMTRDTSTSTVYMELSSLRSEDTAVYYCARSTLWFSEFDYWGQGTLVTVSS
VL: QSVLTQPSSVSASPGQSITISCSGTSSDVGGHNYVSWYQQHPGKAPKLMIYDVTKRPSGVPDRFSGSKSGNTASLTVSGLQAEDEADYYCCSYAGSRVYVFGTGTKLTVL
notes: also called CD47A8

binding (human CD47 (human) [7]): binds
B10: C47B10-2C4S (antibody, V domains shown)
VH: QVQLVQSGAEVKKPGASVKVSCKASGYTFTSYYMHWVRQAPGQGLEWMGIINPSGGSTSYAQKFQGRVTMTRDTSTSTVYMELSSLRSEDTAVYYCARSTLWFSSFDYWGQGTLVTVSS
VL: QSVLTQPASVSGSPGQSISISCTGTSSDVGGHNYVSWYQQHPGKAPKLMIYDVRNRPSGVSNRFSGSKSGSTASLTISGLQTEDEADYYCNSYTGSRTYVFGSGTKLTVL

binding (human CD47 (human) [6]): binds | binding (human CD47 (human) [3]): binds | binding (human CD47 (human) [4]): binds
B11: C47B10-L3-B2 (antibody, V domains shown)
VH: QVQLVQSGAEVKKPGASVKVSCKASGYTFTSYYMHWVRQAPGQGLEWMGIINPSGGSTSYAQKFQGRVTMTRDTSTSTVYMELSSLRSEDTAVYYCARSTLWFSEFDYWGQGTLVTVSS
VL: QSALTQPASVSGSPGQSISISCTGTSSDVGGHNYVSWYQQHPGKAPKLMIYDVRNRPSGVSNRFSGSKSGSTASLTISGLQTEDEADYYCTSYTGSRTYVFGSGTKLTVL

binding (human CD47 (human) [7]): binds
B12: C47B10-2C1S (antibody, V domains shown)
VH: QVQLVQSGAEVKKPGASVKVSCKASGYTFTSYYMHWVRQAPGQGLEWMGIINPSGGSTSYAQKFQGRVTMTRDTSTSTVYMELSSLRSEDTAVYYCARSTLWFTEFDYWGQGTLVTVSS
VL: QSVLTQPASVSGSPGQSISISCTGTSSDVGGHNYVSWYQQHPGKAPKLMIYDVRNRPSGVSNRFSGSKSGSTASLTISGLQTEDEADYYCNSYTGSRTYVFGSGTKLTVL

binding (human CD47 (human) [6]): binds | binding (human CD47 (human) [3]): binds | binding (human CD47 (human) [4]): binds
B13: C47B10-H3-D3 (antibody, V domains shown)
VH: QVQLVQSGAEVKKPGASVKVSCKASGYTFTSYYMHWVRQAPGQGLEWMGIINPSGGSTSYAQKFQGRVTMTRDTSTSTVYMELSSLRSEDTAVYYCARSTLWFSEFDWWGQGTLVTVSS
VL: QSALTQPASVSGSPGQSISISCTGTSSDVGGHNYVSWYQQHPGKAPKLMIYDVRNRPSGVSNRFSGSKSGSTASLTISGLQTEDEADYYCNSYTGSRTYVFGSGTKLTVL

binding (human CD47 (human) [1]): binds | binding (human CD47 (human) [2]): binds
B14: C47A8-CQ (antibody, V domains shown)
VH: QVQLVQSGAEVKKPGASVKVSCKASGYTFTSYYMHWVRQAPGQGLEWMGIINPSGGSTSYAQKFQGRVTMTRDTSTSTVYMELSSLRSEDTAVYYCARSTLWFSEFDYWGQGTLVTVSS
VL: QSVLTQPSSVSASPGQSITISCSGTSSDVGGHNYVSWYQQHPGKAPKLMIYDVTKRPSGVPDRFSGSKSGNTASLTVSGLQAEDEADYYCQSYAGSRVYVFGTGTKLTVL

binding (human CD47 (human) [8]): binds | binding (human CD47 (human) [3]): binds | binding (human CD47 (human) [4]): binds | binding (human CD47 (human) [9]): binds
B15: C47B10 (antibody, V domains shown)
VH: QVQLVQSGAEVKKPGASVKVSCKASGYTFTSYYMHWVRQAPGQGLEWMGIINPSGGSTSYAQKFQGRVTMTRDTSTSTVYMELSSLRSEDTAVYYCARSTLWFSEFDYWGQGTLVTVSS
VL: QSVLTQPASVSGSPGQSISISCTGTSSDVGGHNYVSWYQQHPGKAPKLMIYDVRNRPSGVSNRFSGSKSGSTASLTISGLQTEDEADYYCNSYTGSRTYVFGSGTKLTVL
notes: lambda light chain (captured with anti-human lambda); also called CD47B10

binding (human CD47 (human) [1]): binds | binding (human CD47 (human) [2]): binds
B16: C47A8-CS (antibody, V domains shown)
VH: QVQLVQSGAEVKKPGASVKVSCKASGYTFTSYYMHWVRQAPGQGLEWMGIINPSGGSTSYAQKFQGRVTMTRDTSTSTVYMELSSLRSEDTAVYYCARSTLWFSEFDYWGQGTLVTVSS
VL: QSVLTQPSSVSASPGQSITISCSGTSSDVGGHNYVSWYQQHPGKAPKLMIYDVTKRPSGVPDRFSGSKSGNTASLTVSGLQAEDEADYYCSSYAGSRVYVFGTGTKLTVL
